From article PMC9342958
Results are given in words; binding and its absence hold for the method and conditions named. For some of these results: Binding seen in cells or lysates may run through a third protein. Some binding calls cover weakened binding; strength is not graded here. For some of these results: Tags and fused reporters may be left off the sequences shown. One block for each molecule: values may come before it.

Protein sequences, listed by entry. Tags and fused reporters are not part of them. Residues count along the entry.
UniProt Q9BXL6, residues 15-107: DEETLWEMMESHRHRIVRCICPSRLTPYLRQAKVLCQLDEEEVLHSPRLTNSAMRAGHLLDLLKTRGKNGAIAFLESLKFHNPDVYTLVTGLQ

How the values were obtained:
[1] = target: CARD14 CARD fused to mEos3.1 (human) (UniProt Q9BXL6); assay: FRET or BRET; DAmFRET (Distributed Amphifluoric FRET) in living S. cerevisiae: protein fused to mEos3.1, GAL promoter, about 16 hr in galactose, part of mEos3.1 photoconverted to the acceptor form, AmFRET against expression level by flow cytometry
[2] = target: BCL10 CARD fused to mEos3.1 (human) (UniProt O95999); assay: as above
[3] = target: CARD11 CARD fused to mEos3.1 (human) (UniProt Q9BXL7); assay: as above
[4] = target: Hs BCL10-(EA3R)4-mEos3.2 (human) (UniProt O95999); assay: FRET or BRET; DAmFRET in HEK293T cells: protein fused to mEos3.2, 48 hr after transfection, cells fixed in 4% PFA, photoconverted, AmFRET against expression level by flow cytometry
[5] = target: BCL10 R58G full-length fused to mEos3.1 (human) (UniProt O95999); assay: FRET or BRET; DAmFRET (Distributed Amphifluoric FRET) in living S. cerevisiae: protein fused to mEos3.1, GAL promoter, about 16 hr in galactose, part of mEos3.1 photoconverted to the acceptor form, AmFRET against expression level by flow cytometry
[6] = target: BCL10 full-length fused to mEos3.1 (human) (UniProt O95999); assay: as above
[7] = target: CARD9 1-142 fused to mEos3.1 (human) (UniProt Q9H257); assay: as above
[8] = target: CARD9 CARD R70W fused to mEos3.1 (human) (UniProt Q9H257); assay: as above
[9] = target: CARD9 CARD fused to mEos3.2 (human) (UniProt Q9H257); assay: FRET or BRET; DAmFRET in HEK293T cells: protein fused to mEos3.2, 48 hr after transfection, cells fixed in 4% PFA, photoconverted, AmFRET against expression level by flow cytometry
[10] = target: CARD9 full-length fused to mEos3.1 (human) (UniProt Q9H257); assay: FRET or BRET; DAmFRET (Distributed Amphifluoric FRET) in living S. cerevisiae: protein fused to mEos3.1, GAL promoter, about 16 hr in galactose, part of mEos3.1 photoconverted to the acceptor form, AmFRET against expression level by flow cytometry
[11] = target: CARD9 I107E full-length fused to mEos3.1 (human) (UniProt Q9H257); assay: as above
[12] = target: endogenous untagged CARD9 of THP-1 cells (human (endogenous in THP-1)) (UniProt Q9H257); assay: SEC; size exclusion chromatography of lysates of THP-1 cells with or without β-glucan stimulation (24 hr), fractions read by capillary immunodetection of CARD9 and BCL10
[13] = target: CARD9 full-length fused to mEos3.2 (human) (UniProt Q9H257); assay: FRET or BRET; DAmFRET in HEK293T cells: protein fused to mEos3.2, 48 hr after transfection, cells fixed in 4% PFA, photoconverted, AmFRET against expression level by flow cytometry

- binding [1]: binds
Molecule: CARD14 CARD fused to mEos3.1 (from UniProt Q9BXL6 15-107) (domain or fragment)

- binding [3]: binds
B2: CARD11 CARD fused to mEos3.1 (domain or fragment, UniProt Q9BXL7 18-110)
chain: EEDALWENVECNRHMLSRYINPAKLTPYLRQCKVIDEQDEDEVLNAPMLPSKINRAGRLLDILHTKGQRGYVVFLESLEFYYPELYKLVTGKE

- binding [4]: binds
B3: Hs BCL10-(EA3R)4-mEos3.2 (protein, UniProt O95999 1-233)
chain: MEPTAPSLTEEDLTEVKKDALENLRVYLCEKIIAERHFDHLRAKKILSREDTEEISCRTSSRKRAGKLLDYLQENPKGLDTLVESIRREKTQNFLIQKITDEVLKLRNIKLEHLKGLKCSSCEPFPDGATNNLSRSNSDESNFSEKLRASTVMYHPEGESSTTPFFSTNSSLNLPVLEVGRTENTIFSSTTLPRPGDPGAPPLPPDLQLEEEGTCANSSEMFLPLRSRTVSRQ

- binding [10]: binds
B9: CARD9 full-length fused to mEos3.1 (protein, UniProt Q9H257 1-536)
chain: MSDYENDDECWSVLEGFRVTLTSVIDPSRITPYLRQCKVLNPDDEEQVLSDPNLVIRKRKVGVLLDILQRTGHKGYVAFLESLELYYPQLYKKVTGKEPARVFSMIIDASGESGLTQLLMTEVMKLQKKVQDLTALLSSKDDFIKELRVKDSLLRKHQERVQRLKEECEAGSRELKRCKEENYDLAMRLAHQSEEKGAALMRNRDLQLEIDQLKHSLMKAEDDCKVERKHTLKLRHAMEQRPSQELLWELQQEKALLQARVQELEASVQEGKLDRSSPYIQVLEEDWRQALRDHQEQANTIFSLRKDLRQGEARRLRCMEEKEMFELQCLALRKDSKMYKDRIEAILLQMEEVAIERDQAIATREELHAQHARGLQEKDALRKQVRELGEKADELQLQVFQCEAQLLAVEGRLRRQQLETLVLSSDLEDGSPRRSQELSLPQDLEDTQLSDKGCLAGGGSPKQPFAALHQEQVLRNPHDAGLSSGEPPEKERRRLKESFENYRRKRALRKMQKGWRQGEEDRENTTGSDNTDTEGS

- binding [12]: binds
B11: endogenous untagged CARD9 of THP-1 cells (protein, UniProt Q9H257 1-536)
chain: MSDYENDDECWSVLEGFRVTLTSVIDPSRITPYLRQCKVLNPDDEEQVLSDPNLVIRKRKVGVLLDILQRTGHKGYVAFLESLELYYPQLYKKVTGKEPARVFSMIIDASGESGLTQLLMTEVMKLQKKVQDLTALLSSKDDFIKELRVKDSLLRKHQERVQRLKEECEAGSRELKRCKEENYDLAMRLAHQSEEKGAALMRNRDLQLEIDQLKHSLMKAEDDCKVERKHTLKLRHAMEQRPSQELLWELQQEKALLQARVQELEASVQEGKLDRSSPYIQVLEEDWRQALRDHQEQANTIFSLRKDLRQGEARRLRCMEEKEMFELQCLALRKDSKMYKDRIEAILLQMEEVAIERDQAIATREELHAQHARGLQEKDALRKQVRELGEKADELQLQVFQCEAQLLAVEGRLRRQQLETLVLSSDLEDGSPRRSQELSLPQDLEDTQLSDKGCLAGGGSPKQPFAALHQEQVLRNPHDAGLSSGEPPEKERRRLKESFENYRRKRALRKMQKGWRQGEEDRENTTGSDNTDTEGS

- binding [13]: binds
B12: CARD9 full-length fused to mEos3.2 (protein, UniProt Q9H257 1-536)
chain: MSDYENDDECWSVLEGFRVTLTSVIDPSRITPYLRQCKVLNPDDEEQVLSDPNLVIRKRKVGVLLDILQRTGHKGYVAFLESLELYYPQLYKKVTGKEPARVFSMIIDASGESGLTQLLMTEVMKLQKKVQDLTALLSSKDDFIKELRVKDSLLRKHQERVQRLKEECEAGSRELKRCKEENYDLAMRLAHQSEEKGAALMRNRDLQLEIDQLKHSLMKAEDDCKVERKHTLKLRHAMEQRPSQELLWELQQEKALLQARVQELEASVQEGKLDRSSPYIQVLEEDWRQALRDHQEQANTIFSLRKDLRQGEARRLRCMEEKEMFELQCLALRKDSKMYKDRIEAILLQMEEVAIERDQAIATREELHAQHARGLQEKDALRKQVRELGEKADELQLQVFQCEAQLLAVEGRLRRQQLETLVLSSDLEDGSPRRSQELSLPQDLEDTQLSDKGCLAGGGSPKQPFAALHQEQVLRNPHDAGLSSGEPPEKERRRLKESFENYRRKRALRKMQKGWRQGEEDRENTTGSDNTDTEGS

More lines, now with the values behind:

B1: BCL10 CARD fused to mEos3.1 (domain or fragment, UniProt O95999 13-101)
chain: LTEVKKDALENLRVYLCEKIIAERHFDHLRAKKILSREDTEEISCRTSSRKRAGKLLDYLQENPKGLDTLVESIRREKTQNFLIQKITD
- binding [2]: binds

B4: BCL10 R58G full-length fused to mEos3.1 (protein, UniProt O95999 1-233)
chain: MEPTAPSLTEEDLTEVKKDALENLRVYLCEKIIAERHFDHLRAKKILSREDTEEISCGTSSRKRAGKLLDYLQENPKGLDTLVESIRREKTQNFLIQKITDEVLKLRNIKLEHLKGLKCSSCEPFPDGATNNLSRSNSDESNFSEKLRASTVMYHPEGESSTTPFFSTNSSLNLPVLEVGRTENTIFSSTTLPRPGDPGAPPLPPDLQLEEEGTCANSSEMFLPLRSRTVSRQ
- binding [5]: binds

B5: BCL10 full-length fused to mEos3.1 (protein, UniProt O95999 1-233)
chain: MEPTAPSLTEEDLTEVKKDALENLRVYLCEKIIAERHFDHLRAKKILSREDTEEISCRTSSRKRAGKLLDYLQENPKGLDTLVESIRREKTQNFLIQKITDEVLKLRNIKLEHLKGLKCSSCEPFPDGATNNLSRSNSDESNFSEKLRASTVMYHPEGESSTTPFFSTNSSLNLPVLEVGRTENTIFSSTTLPRPGDPGAPPLPPDLQLEEEGTCANSSEMFLPLRSRTVSRQ
- binding [6]: binds

B6: CARD9 1-142 fused to mEos3.1 (domain or fragment, UniProt Q9H257 1-142)
chain: MSDYENDDECWSVLEGFRVTLTSVIDPSRITPYLRQCKVLNPDDEEQVLSDPNLVIRKRKVGVLLDILQRTGHKGYVAFLESLELYYPQLYKKVTGKEPARVFSMIIDASGESGLTQLLMTEVMKLQKKVQDLTALLSSKDD
- binding [7]: binds

B7: CARD9 CARD R70W fused to mEos3.1 (domain or fragment, UniProt Q9H257 6-98)
chain: NDDECWSVLEGFRVTLTSVIDPSRITPYLRQCKVLNPDDEEQVLSDPNLVIRKRKVGVLLDILQWTGHKGYVAFLESLELYYPQLYKKVTGKE
- binding [8]: binds

B8: CARD9 CARD fused to mEos3.2 (domain or fragment, UniProt Q9H257 6-98)
chain: NDDECWSVLEGFRVTLTSVIDPSRITPYLRQCKVLNPDDEEQVLSDPNLVIRKRKVGVLLDILQRTGHKGYVAFLESLELYYPQLYKKVTGKE
- binding [9]: binds

B10: CARD9 I107E full-length fused to mEos3.1 (protein, UniProt Q9H257 1-536)
chain: MSDYENDDECWSVLEGFRVTLTSVIDPSRITPYLRQCKVLNPDDEEQVLSDPNLVIRKRKVGVLLDILQRTGHKGYVAFLESLELYYPQLYKKVTGKEPARVFSMIEDASGESGLTQLLMTEVMKLQKKVQDLTALLSSKDDFIKELRVKDSLLRKHQERVQRLKEECEAGSRELKRCKEENYDLAMRLAHQSEEKGAALMRNRDLQLEIDQLKHSLMKAEDDCKVERKHTLKLRHAMEQRPSQELLWELQQEKALLQARVQELEASVQEGKLDRSSPYIQVLEEDWRQALRDHQEQANTIFSLRKDLRQGEARRLRCMEEKEMFELQCLALRKDSKMYKDRIEAILLQMEEVAIERDQAIATREELHAQHARGLQEKDALRKQVRELGEKADELQLQVFQCEAQLLAVEGRLRRQQLETLVLSSDLEDGSPRRSQELSLPQDLEDTQLSDKGCLAGGGSPKQPFAALHQEQVLRNPHDAGLSSGEPPEKERRRLKESFENYRRKRALRKMQKGWRQGEEDRENTTGSDNTDTEGS
- binding [11]: binds
